Results are given in words; binding and its absence hold for the method and conditions named. Binding seen in cells or lysates may run through a third protein. Here binding means that the protein was enriched with, or labelled near, the bait; the list need not be complete.

For the test, the target named is T1, Nod26-like major intrinsic protein (NIP) encoded by the low silicon gene 1 (Lsi1), in Lsi1-overexpressing Dular rice leaves (rice (Oryza sativa)) (UniProt Q6Z2T3).
T1 sequence: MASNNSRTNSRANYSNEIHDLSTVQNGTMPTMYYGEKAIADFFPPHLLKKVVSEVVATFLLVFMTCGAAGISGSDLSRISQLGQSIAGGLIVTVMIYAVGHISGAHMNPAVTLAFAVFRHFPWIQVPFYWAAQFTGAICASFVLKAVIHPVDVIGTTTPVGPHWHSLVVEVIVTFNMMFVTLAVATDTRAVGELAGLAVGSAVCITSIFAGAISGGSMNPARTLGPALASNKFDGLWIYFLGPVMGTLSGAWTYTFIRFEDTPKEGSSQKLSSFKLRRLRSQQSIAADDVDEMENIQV
Kind of test: affinity purification with mass spectrometry; crude non-denatured leaf extract of rice treated at low temperature for 48 h, antibodies (200:1) overnight at 4 °C, protein A/G agarose, SDS-PAGE and LC-MS/MS.

B1: 14-3-3f protein, in rice leaf extract (protein, UniProt Q06967 1-260)
chain: MSPAEASREENVYMAKLAEQAERYEEMVEFMEKVAKTTDVGELTVEERNLLSVAYKNVIGARRASWRIISSIEQKEESRGNEAYVASIKEYRSRIETELSKICDGILKLLDSHLVPSATAAESKVFYLKMKGDYHRYLAEFKSGAERKEAAENTLVAYKSAQDIALADLPTTHPIRLGLALNFSVFYYEILNSPDRACNLAKQAFDDAIAELDTLGEESYKDSTLIMQLLRDNLTLWTSDNAEDGGDEIKEAAKPEGEGH
For B1, the binding result is reported as “binds”.

Values taken from paper PMC9103898.
